Some results were stated once for a whole list of compounds, not compound by compound. At least one structure is not confirmed: it was looked up by name or label, or the drawing left a doubt.
Experiments:
[1] = system: Human dermal fibroblasts from Friedreich's Ataxia patients; test: Rescue of BSO-stressed FRDA fibroblasts (Calcein AM viability); type: cell-based; conditions: FRDA fibroblasts GM04078, BSO stress; read-out: protection against FRDA, EC50
Description: (§1) An initial screen was performed to identify compounds effective for the amelioration of redox disorders. Test samples, 4 reference compounds (Idebenone, decylubiquinone, Trolox and α-tocopherol acetate), and solvent controls were tested for their ability to rescue FRDA fibroblasts stressed by addition of L-buthionine-(S,R)-sulfoximine (BSO), as described in Jauslin et al., Hum. Mol. Genet. 11(24):3055 (2002), Jauslin et al., FASEB J. 17:1972-4 (2003), and International Patent Application WO 2004/003565. […] This specific BSO-mediated cell death can be prevented by administration of antioxidants or molecules involved in the antioxidant pathway, such as α-tocopherol, selenium, or small molecule glutathione peroxidase mimetics. However, antioxidants differ in their potency, i.e. the concentration at which they are able to rescue BSO-stressed FRDA fibroblasts.
MEM (a medium enriched in amino acids and vitamins, catalog no. 1-31F24-I) and Medium 199 (M199, catalog no. 1-21F22-I) with Earle's Balanced Salts, without phenol red, were purchased from Bioconcept. Fetal Calf Serum was obtained from PAA Laboratories. Basic fibroblast growth factor and epidermal growth factor were purchased from PeproTech. Penicillin-streptomycin-glutamine mix, L-buthionine (S,R)-sulfoximine, (+)-α-tocopherol acetate, decylubiquinone, and insulin from bovine pancreas were purchased from Sigma. […]

[2] = system: human dermal fibroblasts from LHON patients; test: Rescue of BSO-stressed fibroblasts from LHON patients; type: cell-based; conditions: LHON fibroblasts GM03858, BSO stress; read-out: protection against LHON, EC50
Description: as §1
Test samples were screened according to the following protocol: A culture with FRDA fibroblasts was started from a 1 ml vial with approximately 500,000 cells stored in liquid nitrogen. […]
100 μl of PBS containing 1.2 μM Calcein AM were then added to each well. […] After that time the PBS was discarded, the plate gently tapped on a paper towel and fluorescence (excitation/emission wavelengths of 485 nm and 525 nm, respectively) was read on a Gemini fluorescence reader. […]

With `CC1=C(CCC(C)(C)O)C(=O)C(c2ccc(Cl)cc2)=C(C)C1=O` [Example 7, 2-(4-chlorophenyl)-6-(3-hydroxo-3-methylbutyl)-3,5-dimethylcyclohexa-2,5-diene-1,4-dione] the EC50 [1] was under 200 nM and the EC50 [2] was under 200 nM.

Reference: patent US9486435B2, “(Het)aryl-p-quinone derivatives for treatment of mitochondrial diseases” (Edison Pharmaceuticals, Inc., priority 2008, dated 2016)
